Among all 390,000 compounds or so, about 820 (0.21%) were called active. Inconclusive results, whose numbers are uncertain, are shown with a selection of clear calls. Calls follow the shape of the dose curve; as a rule, active = well fitted inhibition curve with a large enough effect; inconclusive = small, poorly fitted or top-dose-only effect, or another doubt; inactive = no such curve, though single readings can be large or run the other way. Where the call is inconclusive, the potency comes from a doubtful curve fit.
The molecules below were run against Histone acetyltransferase KAT2A (Homo sapiens) (UniProt Q92830) (assay: qHTS Assay for Inhibitors of GCN5L2). Conditions: GCN5L2 HAT assay, ThioGlo1 CoA-SH fluorescence; series mostly up to 58.9 µM.
How it was run: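 Fluorescence readout, Ex340nm/Em540nm: ThioGlo1 (50uM final) reacts with free CoA thiol released as 20nM GCN5L2 acetylates H3(1-25) peptide (75uM) using acetyl-CoA (70uM). Compound and enzyme sat 15 min beforehand; 20 min room-temperature reaction.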
Potency is read from the fitted curve at half-maximal effect.

The chains behind the UniProt entries cited, without tags or fusion partners.
UniProt Q92830, whole entry, looked up: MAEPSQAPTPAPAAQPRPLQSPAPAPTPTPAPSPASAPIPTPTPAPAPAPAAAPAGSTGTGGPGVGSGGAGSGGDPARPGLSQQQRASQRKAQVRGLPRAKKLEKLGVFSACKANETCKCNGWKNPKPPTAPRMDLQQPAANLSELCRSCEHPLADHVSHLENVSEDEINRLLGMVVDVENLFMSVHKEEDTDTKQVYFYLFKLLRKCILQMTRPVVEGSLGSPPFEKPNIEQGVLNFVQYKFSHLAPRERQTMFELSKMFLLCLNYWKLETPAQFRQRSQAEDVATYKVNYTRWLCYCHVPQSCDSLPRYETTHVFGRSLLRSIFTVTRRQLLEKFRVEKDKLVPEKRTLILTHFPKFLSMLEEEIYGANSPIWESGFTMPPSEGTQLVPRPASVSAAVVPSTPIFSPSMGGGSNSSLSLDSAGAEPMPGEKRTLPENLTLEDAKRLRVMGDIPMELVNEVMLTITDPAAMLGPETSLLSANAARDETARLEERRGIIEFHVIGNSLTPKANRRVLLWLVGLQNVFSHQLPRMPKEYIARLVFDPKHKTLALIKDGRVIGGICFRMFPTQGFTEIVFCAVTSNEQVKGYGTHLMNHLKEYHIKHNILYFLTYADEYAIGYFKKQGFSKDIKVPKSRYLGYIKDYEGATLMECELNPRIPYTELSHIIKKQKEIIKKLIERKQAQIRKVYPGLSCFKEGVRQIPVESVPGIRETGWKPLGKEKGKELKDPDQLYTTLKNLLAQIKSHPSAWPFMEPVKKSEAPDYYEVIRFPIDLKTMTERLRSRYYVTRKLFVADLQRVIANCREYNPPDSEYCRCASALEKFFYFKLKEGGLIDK

| Structure (SMILES) | Potency |
| --- | --- |
| Cc1ccc(-c2cc(C)nc3nc(N)nn23)cc1 | inconclusive: 7.94 µM [inhibitor, single point] |
| Cc1ccc(S(=O)(=O)NNc2ccccc2)cc1 | active: 28.2 µM |
| COc1ccc(CCNC(=S)Nc2ccc(OC)cc2)cc1 | inactive |
| CCOC(=O)CN1CC23C=CC(O2)C(C(=O)NCc2ccccc2OC)C3C1=O (centres undefined) | inconclusive: 22.4 µM [inhibitor, single point] |
| C[C@H]1COC(=O)[C@@H](Cc2ccc(F)cc2)C/C=C\C[C@@H](CC(=O)N[C@@H](CO)Cc2ccccc2)C(=O)N1 | inactive |
| CC(Sc1nnc(C2CC2)n1-c1ccccc1)C(=O)N1CCCC1 (centres undefined) | inconclusive: 35.5 µM [inhibitor, single point] |
| CCCCn1nc2cc(C(=O)NCCCCc3ccccc3)ccc2c1OCC | inconclusive: 31.6 µM [inhibitor, partial curve] |
| CCN(CC)CCOc1ccc2c(c1)C(=NNC(=O)c1ccccn1)c1cc(OCCN(CC)CC)ccc1-2 | inconclusive: 39.8 µM [inhibitor, single point] |
| CC1CCN(CCCn2c(=S)[nH]c3ccc(N4CCOCC4)cc3c2=O)CC1 | inconclusive: 0.631 µM [inhibitor, partial curve, poor fit] |
| CCN(Cc1ccccc1)C(=O)Cn1c(=O)oc2cc(S(=O)(=O)N3CCCCCC3)ccc21 | inactive |
| COc1ccc(N2C(=O)C(CC(=O)O)S/C2=N\N=C\c2cccs2)cc1 (centres undefined) | inconclusive: 0.891 µM [inhibitor, single point] |
| Cc1ccc(NC(=O)CNCC2CCCCC2)cc1S(=O)(=O)N(C)C | inconclusive: 3.55 µM [inhibitor, single point] |
| COc1ccc(-c2cc(C(F)(F)F)nc(NC3CCCC3)n2)cc1OC | inconclusive: 1.58 µM [inhibitor, full curve] |
| CN(C)C(=O)CCSC(SCCC(=O)O)c1cccc(/C=C/c2ccc3ccc(Cl)cc3n2)c1 (centres undefined) | inconclusive: 31.6 µM [inhibitor, single point] |
| CC(C)C(CCN1C(=O)CCC1=O)C1CCOC(C)(C)C1 (centres undefined) | inconclusive: 6.31 µM [inhibitor, single point] |
| COCCn1c(=O)c(-c2cn(C)c3ccccc23)nc2cnc(Oc3ccc(OC)cc3)nc21 | inconclusive: 3.98 µM [inhibitor, partial curve] |
| Cc1ccc(NC(=S)NC(C)CCc2ccccc2)cc1C (centres undefined) | inactive |
| COc1ccc(OCCCC(=O)N(CCC2=CCCCC2)c2c(N)n(Cc3ccccc3)c(=O)[nH]c2=O)cc1 | inconclusive: 28.2 µM [inhibitor, single point] |
| COCCCN1CC(=O)N2C(c3ccccc3)c3[nH]c4ccccc4c3C[C@H]2C1=O (some centres undefined) | inactive |
| O=C(Nc1nc2cc3c(cc2s1)OCO3)c1cccc(N2C(=O)CCC2=O)c1 | inconclusive: 20 µM [inhibitor, partial curve] |
| N#C/C(=N\Nc1ccc(Cl)c(Cl)c1)C(=O)C1CC1 | inactive |
| Cn1c(N)c(C(=O)COC(=O)Cc2ccsc2)c(=O)n(C)c1=O | inconclusive: 25.1 µM [inhibitor, single point] |

| Structure (SMILES) | Potency |
| --- | --- |
| Oc1ccc(C[C@H]2CNCCN2CCC23CC4CC(CC(C4)C2)C3)cc1 | inactive |
| CCCCOc1ccc(C(=O)Nc2onc3c2CCCC3)cc1 | inactive |
| COc1cccc(CN2CCNC(=O)C2CC(=O)NCCn2cccn2)c1OC (centres undefined) | inconclusive: 39.8 µM [inhibitor, single point] |
| CCn1c(NCc2ccc(N(C)C)cc2)nc2ccccc21 | inactive |
| Cc1ccc(CS(=O)(=O)c2cn(CC(=O)N3CCOCC3)c3ccccc23)cc1 | inconclusive: 39.8 µM [inhibitor, single point] |
| CCc1cc(C(=O)N/N=C/c2ccc(O)cc2)c2ccccc2n1 | inactive |
| Cc1c(-c2ccc(Cl)cc2)c(=O)oc2c(CN3CCOCC3)c(O)ccc12 | inconclusive: 28.2 µM [inhibitor, partial curve] |
| Cc1ccccc1-c1nccc(-n2ccnc2)n1 | inconclusive: 28.2 µM [inhibitor, single point] |
| Cc1c(C(=O)Oc2cc(N)n(S(C)(=O)=O)n2)cccc1[N+](=O)[O-] | inconclusive: 0.562 µM [inhibitor, partial curve, poor fit] |
| C=CCOc1ccccc1/C=N/NC(=O)Cc1ccccc1 | inconclusive: 28.2 µM [inhibitor, single point] |
| CC(=O)Nc1ccc(NC(=O)c2cc(-c3cc(C)cc(C)c3O)n[nH]2)cc1 | inactive |
| CC(NCCCOc1cccc2ccccc12)c1ccccc1 (centres undefined) | inconclusive: 39.8 µM [inhibitor, single point] |
| O=C(CC1C(=O)NCCN1Cc1ccccc1C(F)(F)F)NCCn1cccn1 (centres undefined) | inconclusive: 39.8 µM [inhibitor, single point] |
| O=C(Nc1ccc(S(=O)(=O)N2CCOCC2)cc1)c1cccc(Br)c1 | inconclusive: 7.08 µM [inhibitor, single point] |
| Cc1ccc(Nc2c(-c3ccccc3O)nc3cc(C)ccn23)cc1 | active: 25.1 µM |
| Cc1ccc(S(=O)(=O)N2CCN(C(=O)COC(=O)c3c(C)cc(C)cc3C)CC2)c(C)c1 | inconclusive: 39.8 µM [inhibitor, single point] |
| Cc1cc(Cl)ccc1NC(=O)CCn1nc(C)c2c(C)n(-c3ccccc3)nc2c1=O | inconclusive: 31.6 µM [inhibitor, single point] |
| O=C(Nc1ccnn1C1CCN(CCCc2ccccc2)CC1)c1cccc(F)c1 | inactive |
| COC(=O)c1sc(S(=O)(=O)Nc2c(C)nn(C)c2C)c(C(=O)OC)c1C | inactive |
| C=CCOc1c2ccc(C(=O)NCc3ccc(OC)cc3)cc2nn1C | inconclusive: 31.6 µM [inhibitor, single point] |
| CC(C)NC(=O)CSc1nc2ccccc2c(=O)n1Cc1ccc(C(=O)NC(C)C)cc1 | inactive |
| Cc1ccc(C)c(N2CCN(C(=O)c3ccc(N4CCCC4=O)cc3)CC2)c1 | inconclusive: 0.794 µM [inhibitor, full curve] |

Nothing new here: entries from further up.

| Structure (SMILES) | Potency |
| --- | --- |
| Cc1ccc(NC(=O)CNCC2CCCCC2)cc1S(=O)(=O)N(C)C | inconclusive: 3.55 µM [inhibitor, single point] |
| COc1ccc(-c2cc(C(F)(F)F)nc(NC3CCCC3)n2)cc1OC | inconclusive: 1.58 µM [inhibitor, full curve] |
